Laboratory results published in PubChem BioAssay AID540256 (National Center for Advancing Translational Sciences (NCATS), 2011).
In all, about 300,000 compounds went through this assay and about 3,700 (1.2%) were called active. The inconclusive results got no clear call from the source; some entries with a clear call stand among them for comparison. Calls come from the whole dose curve; tested in HEK293 cells. Potencies of inconclusive entries are doubtful fits and often do not repeat.

assay: qHTS for Inhibitors of binding or entry into cells for Lassa Virus; conditions: Lassa virus pseudotype entry inhibition, cell reporter; activity change, negative = inhibition: at 37.9 µM (top of the series) unless noted; note: nearly all actives have a fitted effect of over 50% in size
% is set by controls: 0 for no effect and ±100 for the full control effect; potency is the fitted concentration of half-maximal effect.

SMILES	Potency	activity change, negative = inhibition
CCCNC(=O)c1ccccc1NC(=O)Cc1ccc(OC)c(S(=O)(=O)N2CCOCC2)c1	inconclusive: 20 µM [activator, partial curve, poor fit]	
CO/N=C/CC(=O)c1cnc(-c2ccc(Cl)cc2)s1		inconclusive: 40% [activator]
O=C(Nc1nc(-c2ccc(-c3ccccc3)cc2)cs1)C1=COCCO1	inactive	
CCN(CC)c1ccc(NC(=O)COc2ccc(N(C)S(=O)(=O)c3cccs3)cc2)cc1	inconclusive: 3.16 µM [inhibitor, single point]	
Nc1cccc2cc(S(=O)(=O)O)ccc12	inactive	
CCCCn1c(=N)n(CC(O)COc2ccccc2)c2ccccc21 (configuration not stated)	inconclusive: 25.1 µM [inhibitor, single point]	
COc1ccc(C(=O)NC2CCN(C(=S)NCCc3ccccc3)CC2)cc1	inconclusive: 25.1 µM [inhibitor, single point]	
Cc1ccccc1OCc1nc(-c2ccc(NC(=O)c3ccco3)cc2)no1	inconclusive: 15.8 µM [inhibitor, single point]	
Cc1ccc(CSCC(=O)NN=C2CCN(C)CC2)cc1	inconclusive: 4.61 µM [inhibitor, partial curve, poor fit]	
O=C1CC2(CCN(C(=O)c3ccccc3F)CC2)Oc2ccccc21	inconclusive: 31.6 µM [inhibitor, partial curve, poor fit]	
CCOC(=O)N1CCN(c2ccc(C(=O)c3cccc(F)c3)cc2)CC1	inactive	
COc1ccc(-c2noc(CSc3nnc(Cc4ccccc4)n3-c3cccc(C)c3)n2)cc1OC	inconclusive: 0.58 µM [inhibitor, partial curve, poor fit]	
CCN(CC(=O)Nc1ccc2c(c1)OCCO2)C(=O)/C=C/c1ccc(OC)cc1OC	inactive	
CCOc1ccc(S(=O)(=O)NCc2cccs2)cc1C(C)C	inconclusive: 35.5 µM [inhibitor, single point]	
Cc1ccc(S(=O)(=O)NCCC(=O)N2CCC(C(N)=O)CC2)cc1C	inactive	
Cc1oc2ccc(O)c(CN(C)Cc3ccccc3)c2c1C(=O)Nc1cccc(Cl)c1C	inconclusive: 12.6 µM [inhibitor, single point]	
CCN(CC)S(=O)(=O)c1cccc(C(=O)NC(C(=O)Nc2nnc(C3CC3)s2)C(C)C)c1 (configuration not stated)	inactive	
O=C(N/N=C\c1ccc(CNS(=O)(=O)c2ccc(Cl)cc2)o1)C(=O)Nc1ccc(Oc2ccccc2)cc1	inconclusive: 6.31 µM [inhibitor, full curve, poor fit]	
Cc1ccc(NC(=S)NC(=O)C2CCCCC2)c(Br)c1	inconclusive: 35.5 µM [inhibitor, single point]	
Cc1ccc(OCC(=O)NNC(=O)c2ccoc2C)c(Br)c1	inconclusive: 3.16 µM [inhibitor, partial curve, poor fit]	
Cc1cccc(CN2CCN(C3CN(Cc4cn(Cc5ccccc5F)nn4)S(=O)(=O)C3)CC2)c1 (configuration not stated)	inconclusive: 2.81 µM [activator, full curve, poor fit]	
O=C(CN1CCN(c2ccccc2F)CC1)Nc1ccc2c(c1)CCC2	inactive	
O=C(COC(=O)c1ccc(F)cc1F)c1ccc[nH]1	inactive	

Reprinted at random: 5 compounds from above
SMILES	Potency	activity change, negative = inhibition
O=C(CN1CCN(c2ccccc2F)CC1)Nc1ccc2c(c1)CCC2	inactive	
Cc1ccc(NC(=S)NC(=O)C2CCCCC2)c(Br)c1	inconclusive: 35.5 µM [inhibitor, single point]	
CCN(CC)S(=O)(=O)c1cccc(C(=O)NC(C(=O)Nc2nnc(C3CC3)s2)C(C)C)c1 (configuration not stated)	inactive	
CCCCn1c(=N)n(CC(O)COc2ccccc2)c2ccccc21 (configuration not stated)	inconclusive: 25.1 µM [inhibitor, single point]	
Cc1ccc(S(=O)(=O)NCCC(=O)N2CCC(C(N)=O)CC2)cc1C	inactive	

Remaining list, next part.

SMILES	Potency	activity change, negative = inhibition
O=C(N/N=C/c1ccoc1)c1ccccc1Br	inconclusive: 8.91 µM [activator, partial curve, poor fit]	
CCN1CCN(c2ccc(S(=O)(=O)N3CCCCC3)cc2NC(=O)C(C)Oc2ccc(F)cc2)CC1 (configuration not stated)	inconclusive: 3.98 µM [activator, single point]	
CC1=CC(C)(C)N(C(=O)CSc2nnc(-c3ccc(C)cc3)o2)c2ccc(C)cc21	inconclusive: 1.41 µM [inhibitor, full curve, poor fit]	
Oc1ccc(O)cc1	inconclusive: 32.6 µM [inhibitor, partial curve, poor fit]	
O=C1CC(N2CCOCC2)=NN1c1ccc([N+](=O)[O-])cc1	inconclusive: 4.47 µM [activator, single point]	
CC(=O)c1cccc(NS(=O)(=O)c2ccc(N/C=C\C(=O)c3ccc(C)cc3)cc2)c1	inactive	
C/C(=N/OC(=O)C1CC12CCC2)c1ccc(Br)cc1 (configuration not stated)	inactive	
COCCn1c(C)cc(C2=NNC(=NC3CC3)SC2)c1C	active: 0.316 µM	
CC(C)(C)c1ccc(NC(=O)c2ccccc2)c([N+](=O)[O-])c1	inconclusive: 11.2 µM [inhibitor, single point]	
CCOc1ccc(-n2c(SCC(=O)NCc3ccco3)nc3c([nH]c4ccccc43)c2=O)cc1	inconclusive: 3.16 µM [activator, single point]	
O=C(NCc1ccccn1)c1cccc([N+](=O)[O-])c1	inconclusive: 0.92 µM [activator, full curve, poor fit]	
CC(Cc1ccccc1)NC(=O)CC(c1ccccc1)c1ccccc1O (configuration not stated)	active: 5.62 µM	
COc1ccc(Cl)cc1NC(=O)C/C(C)=N/NC(=O)Cc1ccccc1	inactive	
COc1cccc2cc(-c3ccccc3)c(=O)oc12	inactive	
CCC1(C)CC2(CCCN(CCC(O)(c3ccccc3)c3ccccc3)C2)CCO1 (configuration not stated)	inconclusive: 35.5 µM [inhibitor, single point]	
Nc1c(C(=O)NCc2ccc3c(c2)OCO3)c2nc3ccccc3nc2n1CCCN1CCOCC1	inconclusive: 29.1 µM [inhibitor, single point]	
COc1ccc(-c2c3c(=O)n(C)c(=O)n(C)c3cn2Cc2cccnc2)cc1	inactive	
C/C=C/c1ccc(OCCCCN2C(=O)NC(C)(C)C2=O)c(OC)c1	active: 18.3 µM	
O=c1c2c(ncn2C2CCCC2)n(Cc2ccccc2)c(=O)n1CCOc1ccc(Br)cc1	inactive	
Cc1c(NC(=O)c2cc(-c3ccc(Cl)cc3)on2)c(=O)n(-c2ccccc2)n1C	inactive	
CN(c1ccc(C(=O)Nc2ccccn2)cc1)S(=O)(=O)c1ccccc1	inactive	
CCOc1ccc(S(=O)(=O)N2CCOCC2)cc1NC(=O)CN1C(=O)NC(C)(c2ccc(C)cc2)C1=O (configuration not stated)	inactive	
CCOc1ccc(NC(=O)N2CCN(Cc3cc(=O)n4nc(-c5ccc(OC)cc5)sc4n3)CC2)cc1	inactive	

SMILES	Potency	activity change, negative = inhibition
CCOc1ccc(C(C)=O)cc1CSc1nnnn1-c1ccc(O)cc1	inconclusive: 17.8 µM [inhibitor, single point]	
COc1ccc(N2C(=O)CS(=O)(=O)C23C(=O)N(Cc2ccc(C)cc2)c2ccccc23)cc1Cl (configuration not stated)	inconclusive: 7.08 µM [inhibitor, partial curve, poor fit]	
COc1ccc(CCC(=O)N2CCN(S(=O)(=O)c3ccc4ccccc4c3)CC2)cc1	inconclusive: 35.5 µM [inhibitor, single point]	
O=C(Nc1ccc(S(=O)(=O)NCc2ccccc2)cc1)c1ccc(Br)o1	inconclusive: 10 µM [inhibitor, partial curve, poor fit]	
O=C(N/N=C\c1ccc([N+](=O)[O-])s1)c1cncc(Br)c1	active: 2.91 µM	
CC(C)(C)NC(=O)NC(=O)COC(=O)c1cccc(NS(=O)(=O)c2ccc(F)c(F)c2)c1	active: 10 µM	
Cn1c(=O)c2c(nc(N/N=C/c3ccc(OC(=O)c4ccco4)cc3)n2Cc2ccccc2)n(C)c1=O	active: 10 µM	
O=C(O)c1cc2c(cc1NC(=O)c1ccccc1C(F)(F)F)OCCCO2	inconclusive: 1.26 µM [activator, single point]	
O=C(O)c1ccc(NS(=O)(=O)c2ccc(C(=O)Nc3ccccc3)cc2)cc1	inconclusive: 35.5 µM [activator, single point]	
COc1cccc(/C=N/NC(=O)c2nnn(-c3nonc3N)c2C(C)C)c1OCc1ccc(F)cc1	inconclusive: 35.5 µM [inhibitor, single point]	
Cc1ccc(NC(=O)c2ccc(NC(=O)c3ccccc3)cc2)cc1C	inconclusive: 8.91 µM [inhibitor, partial curve, poor fit]	
COc1cccc(Cc2nc3ccccc3nc2SCC(=O)NCc2ccc(C)cc2)c1	inconclusive: 2.24 µM [inhibitor, partial curve, poor fit]	
CCOc1ccc(NS(=O)(=O)c2ccc(NC(=S)NC(=O)C(C)C)cc2)cc1	inconclusive: 35.5 µM [inhibitor, single point]	
Cc1ccc(P(=O)(CSC(=N)N)c2ccc(C)cc2)cc1	inconclusive: 5.62 µM [inhibitor, partial curve]	
Cc1ccc(NC(=O)c2ccccc2NC(=O)CCC(=O)O)cc1	inconclusive: 29.1 µM [activator, single point]	
CC(C)N(Cc1nc(-c2ccc(Cl)cc2)no1)C(=O)/C=C/c1ccccc1	inconclusive: 35.5 µM [inhibitor, single point]	
Cc1ccc(-c2csc(=Nc3cccnc3)n2CCCn2ccnc2)cc1C	inconclusive: 20.6 µM [inhibitor, single point]	
Cc1ccc(NC(=O)N2CCN(c3cc(-c4noc(C)n4)ccc3C)CC2)c(C)c1	inconclusive: 3.16 µM [inhibitor, single point]	
Cc1cccc(CCNC(=O)CN(c2ccc(C(C)C)cc2)S(=O)(=O)c2c(C)nn(C)c2C)c1	inconclusive: 6.31 µM [inhibitor, single point]	
CCOC(=O)N1CCN(C(=O)C2CCCN(S(=O)(=O)c3ccc(OCC)cc3)C2)CC1 (configuration not stated)	inconclusive: 5.01 µM [inhibitor, partial curve]	
Cc1ccc(O)c(C2=NNC(O)(C(F)(F)F)C2)c1 (configuration not stated)	inconclusive: 17.8 µM [activator, single point]	
